In PubChem BioAssay (NCATS):
Values joined by “and” are separate entries in the source; they are usually repeats but may differ in a detail not shown here. Equal values may be shown once. This list was built around the results that the source calls inconclusive (neither active nor inactive); the mix of calls is not that of the screen. Where the call is inconclusive, the potency comes from a doubtful curve fit. Active and inactive are the calls of the source. The call rests on the fitted dose curve; in most records, active means well fitted curve in the direction sought with a large enough effect; inconclusive means small, poorly fitted or top-dose-only effect, or another doubt; inactive means no such curve, though single readings can be large; an effect the other way counts as inactive or inconclusive.

Columns and labels:
[1] = Quantitative High-Throughput drug screen in 47 multiple myeloma cell lines against the NCATS MIPE library collection: KMS12PE_JCRB cell viability assay (AID 1918972); further: nearly all actives have a fitted effect of over 30% in size
In short: (§1)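 We plated 500 myeloma cells per well, pinned in MIPE 4.0 compounds, and incubated for 48 hours at 37C. ATP was then quantified with CellTiter-Glo, with DMSO and media-only wells defining 100% and 0%.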

[2] = Quantitative High-Throughput drug screen in 47 multiple myeloma cell lines against the NCATS MIPE library collection: KMS20_JCRB cell viability assay (AID 1918973); details: CellTiter-Glo ATP, 48 h; viability (% of DMSO): at 45.8 µM (top of the series); further: nearly all actives have a fitted effect of over 45% in size
In short: (§2)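 Myeloma cell lines, 500 cells per well, exposed to MIPE 4.0 library compounds for 48 h at 37C, 5% CO2. Viability from ATP by CellTiter-Glo luminescence; normalised to DMSO (100%) and media-only (0%) wells.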

[3] = Quantitative High-Throughput drug screen in 47 multiple myeloma cell lines against the NCATS MIPE library collection: KMS21BM_JCRB cell viability assay (AID 1918974); details: ATP luminescence, 48 h; viability: at 45.8 µM (top of the series) unless noted
In short: as §2

[4] = Quantitative High-Throughput drug screen in 47 multiple myeloma cell lines against the NCATS MIPE library collection: MOLP8_DSMZ cell viability assay (AID 1918977); details: MOLP8 myeloma viability, CellTiter-Glo ATP luminescence, 48 h; viability (% of control): at 45.8 µM (top of the series); further: nearly all actives have a fitted effect of over 45% in size
In short: (§3)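 Plated at 500 cells per well, myeloma lines received MIPE 4.0 compounds by pin tool. Following 48 h culture at 37 °C, CellTiter-Glo luminescence gave viability relative to DMSO and media-only controls.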

[5] = Quantitative High-Throughput drug screen in 47 multiple myeloma cell lines against the NCATS MIPE library collection: OCIMY1_PLB cell viability assay (AID 1918979); further: nearly all actives have a fitted effect of over 35% in size
In short: as §3

[6] = Quantitative High-Throughput drug screen in 47 multiple myeloma cell lines against the NCATS MIPE library collection: KMS26_JCRB cell viability assay (AID 1918975); details: KMS26 myeloma cells viability, CellTiter-Glo ATP, 48 h; viability (% of DMSO): at 45.8 µM (top of the series); further: nearly all actives have a fitted effect of over 45% in size
In short: as §1

[7] = Quantitative High-Throughput drug screen in 47 multiple myeloma cell lines against the NCATS MIPE library collection: NCIH929_DSMZ cell viability assay (AID 1918978); details: NCI-H929 myeloma viability, CellTiter-Glo ATP, 48 h; viability, % of control: at 45.8 µM (top of the series); further: nearly all actives have a fitted effect of over 35% in size
In short: as §3

[8] = Quantitative High-Throughput drug screen in 47 multiple myeloma cell lines against the NCATS MIPE library collection: MM1S_ATCC cell viability assay (AID 1918980); details: MM1S myeloma viability, CellTiter-Glo ATP luminescence, 48 h; viability (% of control): at 45.8 µM (top of the series); further: nearly all actives have a fitted effect of over 45% in size
In short: as §3

[9] = Quantitative High-Throughput drug screen in 47 multiple myeloma cell lines against the NCATS MIPE library collection: MMM1_PLB cell viability assay (AID 1918976); further: nearly all actives have a fitted effect of over 35% in size
In short: as §3
Potency means the concentration at half of the fitted maximal effect.

For Cc1nc(NC(=O)N2CCC[C@@H]2C(N)=O)sc1-c1ccnc(C(C)(C)C(F)(F)F)c1, the Potency [1] was inconclusive: 0.235 µM [cytotoxic, full curve, poor fit], the Potency [2] was active: 1.48 µM and the Potency [3] was “inactive”. For the same molecule, the Potency [4] was inconclusive: 0.148 µM [cytotoxic, full curve] and the Potency [5] was active: 0.0935 µM.

For O=C1NC(=O)C(=Cc2ccc(-c3ccc(F)cc3O)o2)S1, the Potency [1] was “inactive”, the Potency [2] was inconclusive: 4.69 µM [cytotoxic, full curve, poor fit] and the Potency [3] was inconclusive: 33.2 µM [rising, partial curve, poor fit]. The Potency [6] was inconclusive: 0.372 µM [cytotoxic, full curve, poor fit], the Potency [4] was inconclusive: 0.0235 µM [cytotoxic, full curve, poor fit] and the Potency [7] was inconclusive: 16.6 µM [cytotoxic, partial curve].

With CS(=O)c1ccc(-c2nc(-c3ccc(F)cc3)c(-c3ccncc3)[nH]2)cc1 (centres undefined) the Potency [1] was active: 21.5 µM, the Potency [2] was inconclusive: 38.2 µM [cytotoxic, partial curve, poor fit] and the viability [3] was active: 1.55% [at 92.2 µM]. The Potency [6] was inconclusive: 2.15 µM [cytotoxic, full curve, poor fit] and the Potency [4] was inconclusive: 2.15 µM [cytotoxic, full curve, poor fit].

For NC(=O)c1ccc(-c2nc(-c3ccc4c(c3)OCCO4)c(-c3ccccn3)[nH]2)cc1, the Potency [1] was inconclusive: 33.2 µM [cytotoxic, single point], the Potency [2] was inconclusive: 18.7 µM [cytotoxic, partial curve, poor fit] and the Potency [3] was inconclusive: 18.7 µM [rising, partial curve, poor fit]. The Potency [6] was inconclusive: 0.148 µM [cytotoxic, full curve, poor fit], the Potency [4] was “inactive” and the Potency [7] was “inactive”. The Potency [5] was “inactive” and the Potency [8] was inconclusive: 33.2 µM [cytotoxic, single point].

With C=C1C(=O)[C@@]23C(CC[C@@H]1[C@H]2O)[C@@]12CO[C@]3(O)[C@@H](O)[C@@H]1C(C)(C)CC[C@@H]2O (some centres undefined) the Potency [1] was active: 2.09 µM, the Potency [2] was active: 2.35 µM and the Potency [6] was active: 2.64 µM. For the same molecule, the Potency [8] was active: 1.87 µM.

With COc1ccc(-c2coc3cc(O)cc(O)c3c2=O)cc1 the Potency [1] was inconclusive: 33.2 µM [cytotoxic, single point], the Potency [2] was “inactive” and the Potency [6] was inconclusive: 0.118 µM [rising, full curve]. For the same molecule, the Potency [9] was inconclusive: 7.4 nM [rising, full curve], the Potency [4] was “inactive” and the Potency [8] was inconclusive: 0.0332 µM [rising, full curve, poor fit].

In the case of O=c1cc(-c2ccccc2)oc2cc(O)cc(O)c12, the Potency [1] is reported as inconclusive: 18.7 µM [cytotoxic, partial curve], the Potency [2] is reported as inconclusive: 37.2 µM [cytotoxic, partial curve, poor fit] and the Potency [6] is reported as inconclusive: 8.33 µM [rising, full curve, poor fit]. For the same molecule, the Potency [4] was inconclusive: 20.9 µM [cytotoxic, partial curve, poor fit] and the Potency [8] was inconclusive: 0.0132 µM [rising, full curve, poor fit].

With CCCc1nc2c(C)cc(-c3nc4ccccc4n3C)cc2n1Cc1ccc(-c2ccccc2C(=O)O)cc1 the Potency [1] was inconclusive: 9.35 µM [cytotoxic, full curve, poor fit], the Potency [2] was inconclusive: 0.001 µM and the Potency [3] was inconclusive: 6.62 µM [rising, partial curve]. For the same molecule, the Potency [6] was inconclusive: 0.0093 µM [cytotoxic, full curve, poor fit] and the Potency [4] was “inactive”.

In the case of Cc1[nH]c(C=C2C(=O)Nc3ccc(S(=O)(=O)Cc4c(Cl)cccc4Cl)cc32)c(C)c1C(=O)N1CCC[C@H]1CN1CCCC1, the Potency [1] is reported as active: 2.64 µM, the Potency [3] is reported as active: 4.69 µM and the Potency [9] is reported as active: 23500 nM. The Potency [4] was active: 16.6 µM and the Potency [8] was inconclusive: 33.2 µM [cytotoxic, single point].

With CC(C)CNc1ccnc(NCc2csc(-c3ccccc3)n2)n1 the Potency [1] was active: 4.69 µM, the Potency [2] was inconclusive: 7.43 µM [cytotoxic, partial curve, poor fit] and the Potency [3] was inconclusive: 1.32 µM [cytotoxic, full curve, poor fit]. For the same molecule, the Potency [5] was inconclusive: 23.5 µM [cytotoxic, partial curve, poor fit].

In the case of CC(C)c1ccc2c(c1)c(SC(C)(C)C)c(CC(C)(C)C(=O)O)n2Cc1ccc(Cl)cc1, the Potency [1] is reported as “inactive”, the Potency [2] is reported as inconclusive: 13.2 µM [cytotoxic, partial curve, poor fit] and the Potency [3] is reported as inconclusive: 20.9 µM [rising, partial curve]. The Potency [6] was inconclusive: 37.2 µM [cytotoxic, partial curve, poor fit], the Potency [4] was inconclusive: 8.33 µM [cytotoxic, partial curve, poor fit] and the Potency [5] was “inactive”.

For O=C(NCc1ccccc1)c1csc(Nc2ccncn2)n1, the Potency [1] was active: 8.33 µM, the Potency [2] was active: 14.8 µM and the Potency [6] was inconclusive: 20.9 µM [cytotoxic, partial curve, poor fit]. For the same molecule, the Potency [9] was active: 14800 nM, the Potency [4] was active: 18.7 µM and the Potency [7] was inconclusive: 14.8 µM [cytotoxic, partial curve, poor fit].

For COc1ccc(-c2coc3cc(O)ccc3c2=O)cc1, the Potency [1] was “inactive”, the Potency [2] was inconclusive: 1.18 µM [cytotoxic, full curve, poor fit] and the Potency [3] was inconclusive: 8.33 µM [rising, single point]. The Potency [6] was inconclusive: 0.105 µM [cytotoxic, full curve, poor fit], the Potency [4] was active: 0.0059 µM and the Potency [8] was “inactive”.

In the case of Cc1ccnc(NS(=O)(=O)c2ccc(NC(=O)Nc3ccc(S(=O)(=O)Nc4nccc(C)n4)cc3)cc2)n1, the Potency [1] is reported as active: 20.9 µM, the Potency [2] is reported as inconclusive: 9.35 µM [cytotoxic, partial curve, poor fit] and the Potency [3] is reported as inconclusive: 23.5 µM [cytotoxic, partial curve, poor fit]. For the same molecule, the Potency [6] was inconclusive: 1.32 µM [cytotoxic, full curve, poor fit], the Potency [9] was inconclusive: 9350 nM [cytotoxic, full curve, poor fit] and the Potency [4] was inconclusive: 0.833 µM [cytotoxic, partial curve, poor fit]. For the same molecule, the Potency [8] was “inactive”.

For CCC1(c2ccccc2)C(=O)NCNC1=O, the Potency [1] was inconclusive: 0.0021 µM [rising, full curve], the Potency [2] was inconclusive: 2.35 µM [cytotoxic, full curve, poor fit] and the Potency [9] was inconclusive: 3.3 nM [rising, full curve, poor fit]. For the same molecule, the Potency [4] was “inactive” and the Potency [5] was “inactive”.

With COc1ccc([C@@H]2CC(=O)c3c(O)cc(O[C@@H]4O[C@H](CO[C@@H]5O[C@@H](C)[C@H](O)[C@@H](O)[C@@H]5O)[C@@H](O)[C@H](O)[C@@H]4O)cc3O2)cc1O the Potency [1] was “inactive”, the Potency [2] was inconclusive: 4.2 nM [cytotoxic, full curve, poor fit] and inconclusive: 37.2 µM [cytotoxic, single point] and the Potency [3] was inconclusive: 18.7 µM [rising, partial curve, poor fit]. The Potency [9] was inconclusive: 2.3 nM [rising, full curve, poor fit] and inconclusive: 16.6 nM [rising, full curve, poor fit] and the Potency [7] was “inactive and inconclusive: 23.5 µM [cytotoxic, single point]”.

With CC(O)=C(C#N)C(=O)Nc1ccc(C(F)(F)F)cc1 the Potency [1] was inconclusive: 6.62 µM [cytotoxic, partial curve, poor fit], the Potency [2] was inconclusive: 20.9 µM [cytotoxic, partial curve, poor fit] and the Potency [3] was inconclusive: 29.6 µM [rising, single point]. For the same molecule, the Potency [9] was active: 3720 nM, the Potency [4] was inconclusive: 14.8 µM [cytotoxic, partial curve, poor fit] and the Potency [7] was inconclusive: 23.5 µM [cytotoxic, partial curve]. For the same molecule, the Potency [5] was “inactive”.

For CCN(CC)C(=S)SSC(=S)N(CC)CC, the Potency [1] was inconclusive: 3.72 µM [rising, full curve, poor fit], the Potency [2] was active: 0.001 µM and the Potency [3] was inconclusive: 0.0372 µM [cytotoxic, full curve, poor fit]. The Potency [9] was active: 18.7 nM and the viability, % of control [7] was inconclusive: 6.27% [cytotoxic].

With CC1=C[C@@H]2[C@@H]([C@@H](O)C[C@@]3(C)[C@H]2C[C@@H](C)[C@]3(O)C(=O)CO)[C@@]2(C)Cc3cnn(-c4ccccc4)c3C=C12 the Potency [1] was inconclusive: 7.43 µM [cytotoxic, single point], the Potency [2] was inconclusive: 23.5 µM [cytotoxic, partial curve, poor fit] and the Potency [3] was inconclusive: 33.2 µM [rising, partial curve]. For the same molecule, the Potency [6] was inconclusive: 33.2 µM [cytotoxic, single point], the Potency [4] was inconclusive: 10.5 µM [cytotoxic, partial curve, poor fit] and the Potency [7] was inconclusive: 29.6 µM [cytotoxic, single point].

For O=C(Nc1nc2ccccc2n1CCN1CCOCC1)c1cccc([N+](=O)[O-])c1, the Potency [1] was inconclusive: 2.35 µM [cytotoxic, partial curve, poor fit], the Potency [2] was inconclusive: 0.0105 µM [cytotoxic, full curve, poor fit] and the Potency [3] was inconclusive: 37.2 µM [rising, partial curve, poor fit]. For the same molecule, the Potency [6] was active: 29.6 µM, the viability (% of control) [4] was inconclusive: 70.3% [cytotoxic] and the Potency [7] was inconclusive: 1.48 µM [cytotoxic, partial curve, poor fit]. The Potency [5] was inconclusive: 18.7 µM [cytotoxic, partial curve, poor fit].

For CC(=NNC(=S)N1CCC1)c1ccccn1, the Potency [1] was active: 0.001 µM, the Potency [2] was inconclusive: 0.0053 µM [cytotoxic, full curve] and the Potency [6] was inconclusive: 0.0083 µM [cytotoxic, full curve]. The Potency [9] was inconclusive: 29.6 nM [cytotoxic, full curve], the Potency [4] was “inactive” and the Potency [8] was inconclusive: 0.0047 µM [cytotoxic, full curve, poor fit].
